In PubChem BioAssay AID248 (DTP/NCI, 2004):
The list does not hold the whole screen: it is rich in T/C values a quarter to a half above the control, in often repeated tests (any T/C) and in doses without a T/C. Other doses and runs of a compound stand elsewhere. T/C gives the treated animals as a percentage of the vehicle group. Some doses have a count of surviving animals in place of a T/C: the source files T/C as zero there, which appears to mark a toxic dose or a test without result, not a measured value. Some doses without a T/C left all or most animals alive at the check, yet need not have been tolerated: survival well below the control is almost never listed, so the zero probably covers shortened survival too. Survivors were counted at the toxicity check, usually on the fifth day, unless a day is given; later deaths do not show. Schedules are NCI's codes, read here as Q, the interval in days (D) or hours (H), X, the number of doses. Some entries were tested several times; the results are listed from low to high. Some schedules carry Z or #; the key to these is not given. Where survival is the endpoint, the PubChem record calls one and a half times the control and up active, and a quarter to a half above the control has no call in these data; cut-offs in other NCI protocols can differ. Some T/C values are followed by the survivors on the day toxicity was checked, most often the fifth; without a count, all were alive then.

Tested on: L1210 leukemia ip in BDF1 mice, survival T/C
Experiment: NCI In Vivo Anticancer Drug Screen. Data for tumor model L1210 Leukemia (intraperitoneal) in B6D2F1 (BDF1) mice
Settings: higher T/C = longer survival
[1] = T/C endpoint: mean survival time, dose: 200.0 mg/kg/injection, schedule: Q01DX001 (ip), vehicle: carboxymethylcellulose (CMC)
[2] = T/C endpoint: mean survival time, dose: 400.0 mg/kg/injection, schedule: Q01DX001 (ip), vehicle: carboxymethylcellulose (CMC)
[3] = T/C endpoint: mean survival time, dose: 75.0 mg/kg/injection, schedule: Q01DX001 (ip), vehicle: other
[4] = T/C endpoint: mean survival time, dose: 400.0 mg/kg/injection, schedule: Q01DX001 (ip), vehicle: saline
[5] = T/C endpoint: mean survival time, dose: 100.0 mg/kg/injection, schedule: Q01DX009 (ip), vehicle: saline with Tween-80
[6] = T/C endpoint: mean survival time, dose: 200.0 mg/kg/injection, schedule: Q01DX009 (ip), vehicle: saline with Tween-80
[7] = T/C endpoint: mean survival time, dose: 400.0 mg/kg/injection, schedule: Q01DX009 (ip), vehicle: saline with Tween-80
[8] = T/C endpoint: mean survival time, dose: 200.0 mg/kg/injection, schedule: Q01DX001 (ip), vehicle: saline
[9] = T/C endpoint: mean survival time, dose: 200.0 mg/kg/injection, schedule: Q01DX009 (ip), vehicle: saline

CC(=O)Oc1cccc2cc3cc(C)cc(OC(C)=O)c3c(OC(C)=O)c12
survivor count (T/C endpoint: mean survival time, dose: 10.0 mg/kg/injection, schedule: Q01DX001 (ip), vehicle: saline): 2 of 6
survivor count (T/C endpoint: mean survival time, dose: 20.0 mg/kg/injection, schedule: Q01DX001 (ip), vehicle: saline): 1 of 6
survivor count (T/C endpoint: mean survival time, dose: 40.0 mg/kg/injection, schedule: Q01DX001 (ip), vehicle: saline): 0 of 6
survivor count (T/C endpoint: mean survival time, dose: 80.0 mg/kg/injection, schedule: Q01DX001 (ip), vehicle: saline): 0 of 6

CN(C)CCC(O)C(c1ccccc1)c1ccccc1 (stereo unspecified)
survivor count (T/C endpoint: mean survival time, dose: 300.0 mg/kg/injection, schedule: Q01DX001 (ip), vehicle: saline): 2 of 6

c1ccc(CNCc2cccnc2)cc1
survivor count (T/C endpoint: mean survival time, dose: 300.0 mg/kg/injection, schedule: Q01DX009 (ip), vehicle: other): 0 of 6

CCCCCCCCCCCC[As](=O)(O)O
survivor count [1]: 2 of 4
survivor count [2]: 0 of 4

Cc1cc(CSC2=NCCN2)c(C)cc1CSC1=NCCN1
survivor count (T/C endpoint: mean survival time, dose: 200.0 mg/kg/injection, schedule: Q04DX002 (ip), vehicle: saline with Tween-80): 0 of 3
survivor count (T/C endpoint: mean survival time, dose: 400.0 mg/kg/injection, schedule: Q04DX002 (ip), vehicle: saline with Tween-80): 0 of 3

CC(C)CCCC(C)C1CCC2C3CC(O)C4=CCCCC4(C)C3CCC12C (stereo unspecified)
survivor count [3]: 6 of 6
survivor count (T/C endpoint: mean survival time, dose: 150.0 mg/kg/injection, schedule: Q01DX001 (ip), vehicle: other): 6 of 6
survivor count (T/C endpoint: mean survival time, dose: 300.0 mg/kg/injection, schedule: Q01DX001 (ip), vehicle: other): 5 of 6

Cc1cc(=O)c2cc(Cc3ccc(N)cc3)ccc2[nH]1
survivor count [4]: 1 of 6

Cc1ccccc1NC(=O)Nc1cccc(C)c1C
survivor count (T/C endpoint: mean survival time, dose: 400.0 mg/kg/injection, schedule: Q01DX009 (ip), vehicle: Klucel (hydroxypropylcellulose) (HPC)): 3 of 6

COc1ccc(C)cc1NC(=S)NC(=O)c1ccc(Cl)cc1Cl
T/C [5]: 95, 96, 97 % of control
survivor count [5]: 3 of 3
T/C [6]: 96 % of control [5 of 6 alive]
survivor count [6]: 3 of 3 and 6 of 6
survivor count [7]: 5 of 6
survivor count (T/C endpoint: mean survival time, dose: 400.0 mg/kg/injection, schedule: Q04DX003 (ip), vehicle: saline with Tween-80): 6 of 6

CC1(C)N=C(N)N=C(N)N1c1cccc(OCCCC#N)c1
survivor count [8]: 1 of 3
survivor count [4]: 0 of 3

CC(=O)Oc1ccc2ccccc2c1CN(Cc1c(OC(C)=O)ccc2ccccc12)C(C)=O
survivor count (T/C endpoint: mean survival time, dose: 200.0 mg/kg/injection, schedule: Q01DX001 (ip), vehicle: other): 6 of 6

O=C(Nc1ccccc1)C(Cl)S(=O)(=O)O (stereo unspecified)
survivor count (T/C endpoint: mean survival time, dose: 400.0 mg/kg/injection, schedule: Q01DX001 (ip), vehicle: saline with Tween-80): 0 of 3

O=C(/C=C/c1ccccc1)N1CCOCC1
survivor count [9]: 3 of 6
survivor count [4]: 2 of 6

N=C(N)c1ccc(OCCCCOc2ccc(N)cc2Cl)cc1
survivor count (T/C endpoint: mean survival time, dose: 200.0 mg/kg/injection, schedule: Q01DX009 (ip), vehicle: Klucel (hydroxypropylcellulose) (HPC)): 0 of 3

Cc1nc(N(C)C)nc(C)c1C#[N+][O-]
survivor count [1]: 0 of 4
survivor count [2]: 0 of 4

CC(C)CN(CCCCO)CC(C)C
survivor count [7]: 1 of 6

CC1OC(=O)C(C2OC2C)=CC1O (stereo unspecified)
survivor count (T/C endpoint: mean survival time, dose: 50.0 mg/kg/injection, schedule: Q01DX009 (ip), vehicle: saline): 4 of 6
survivor count (T/C endpoint: mean survival time, dose: 100.0 mg/kg/injection, schedule: Q01DX001 (ip), vehicle: saline): 1 of 6
survivor count [8]: 0 of 6

O=[N+]([O-])c1ccc(Cl)cc1/C=N\N=C1c2ccccc2-c2ccccc21
survivor count [3]: 6 of 6

O=CC(O)CO (stereo unspecified)
survivor count (T/C endpoint: mean survival time, dose: 1400.0 mg/kg/injection, schedule: Q01DX Z (ip), vehicle: other): 3 of 6
T/C (T/C endpoint: median survival time, dose: 352.0 mg/kg/injection, schedule: Q01DX005 (ip), vehicle: other): 126 % of control
T/C (T/C endpoint: median survival time, dose: 550.0 mg/kg/injection, schedule: Q01DX005 (ip), vehicle: other): 126 % of control
survivor count (T/C endpoint: median survival time, dose: 860.0 mg/kg/injection, schedule: Q01DX005 (ip), vehicle: saline sonified): 2 of 8
survivor count (T/C endpoint: median survival time, dose: 1604.0 mg/kg/injection, schedule: Q01DX001 (ip), vehicle: saline sonified): 2 of 8
survivor count (T/C endpoint: median survival time, dose: 1782.0 mg/kg/injection, schedule: Q01DX001 (ip), vehicle: saline sonified): 5 of 8

CN=C(NCCCOC)c1ccc(NC(=O)c2ccc(C(=O)Nc3ccc(C(=NC)NCCCOC)cc3)cc2)cc1
T/C (T/C endpoint: mean survival time, dose: 6.6 mg/kg/injection, schedule: Q01DX Z (ip), vehicle: carboxymethylcellulose (CMC)): 136 % of control
T/C (T/C endpoint: mean survival time, dose: 10.0 mg/kg/injection, schedule: Q01DX Z (ip), vehicle: saline): 144 % of control
T/C (T/C endpoint: mean survival time, dose: 15.0 mg/kg/injection, schedule: Q01DX Z (ip), vehicle: saline): 132 % of control
T/C (T/C endpoint: mean survival time, dose: 22.5 mg/kg/injection, schedule: Q01DX Z (ip), vehicle: carboxymethylcellulose (CMC)): 129 % of control [5 of 6 alive]
survivor count (T/C endpoint: mean survival time, dose: 22.5 mg/kg/injection, schedule: Q01DX Z (ip), vehicle: saline): 1 of 6
survivor count (T/C endpoint: mean survival time, dose: 30.0 mg/kg/injection, schedule: Q01DX Z (ip), vehicle: saline): 1 of 6
survivor count (T/C endpoint: mean survival time, dose: 33.7 mg/kg/injection, schedule: Q01DX Z (ip), vehicle: carboxymethylcellulose (CMC)): 2 of 6
survivor count (T/C endpoint: mean survival time, dose: 35.0 mg/kg/injection, schedule: Q01DX Z (ip), vehicle: saline): 0 of 6
survivor count (T/C endpoint: mean survival time, dose: 55.0 mg/kg/injection, schedule: Q01DX Z (ip), vehicle: saline): 0 of 6
survivor count (T/C endpoint: mean survival time, dose: 60.0 mg/kg/injection, schedule: Q01DX Z (ip), vehicle: saline): 0 of 6
survivor count (T/C endpoint: mean survival time, dose: 120.0 mg/kg/injection, schedule: Q01DX Z (ip), vehicle: saline): 0 of 6
survivor count (T/C endpoint: mean survival time, dose: 960.0 mg/kg/injection, schedule: Q01DX Z (oral), vehicle: saline): 1 of 6

Cc1cccc(N)n1 (tested in a mixture with another compound)
survivor count (T/C endpoint: mean survival time, dose: 100.0 mg/kg/injection, schedule: Q01DX009 (ip), vehicle: saline): 4 of 6
survivor count [9]: 0 of 6
survivor count (T/C endpoint: mean survival time, dose: 400.0 mg/kg/injection, schedule: Q01DX009 (ip), vehicle: saline): 0 of 6
